Here are results for 13 molecules from patent US20230137032A1.

Sequences of proteins named here, by UniProt entry; tags and fusion partners are left off. Residues count along the entry.
Human BCMA-Fc (ELISA of section 4.2) (Q02223, residues 4-53): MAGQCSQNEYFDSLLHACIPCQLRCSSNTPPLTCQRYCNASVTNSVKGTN
recombinant human BCMA, commercial (US Biological, B0410) (Q02223, residues 5-54): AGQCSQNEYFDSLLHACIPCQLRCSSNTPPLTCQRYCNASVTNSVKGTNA

Numbering of substitutions follows the chain as printed. These are yes or no findings as the source states them, for the method shown. Some entries that bind do so weakly or less than the wild type. For part of these data: Tags and fused reporters may be left off the sequences shown.

To fix the notation:
B1: CA8 chimera antibody (human chimeric CA8) (antibody, V domains shown)
VH: EVQLQQSGAVLARPGASVKMSCKGSGYTFTNYWMHWVKQRPGQGLEWIGATYRGHSDTYYNQKFKGKAKLTAVTSTSTAYMELSSLTNEDSAVYYCTRGAIYNGYDVLDNWGQGTLVTVSS
VL: DIQLTQTTSSLSASLGDRVTISCSASQDISNYLNWYQQKPDGTVELVIYYTSNLHSGVPSRFSGSGSGTDYSLTIGYLEPEDVATYYCQQYRKLPWTFGGGSKLEIKR
B2: CA8 humanised J9M1 (antibody, human IgG1, kappa, V domains shown)
VH: QVQLVQSGAEVKKPGSSVKVSCKGSGYTFTNYWMHWVRQAPGQGLEWIGATYRGHSDTYYNQKFKGRATLTADTSTSTAYMELSSLRSEDTAVYYCTRGAIYDGYDVLDNWGQGTLVTVSS
VL: DIQMTQSPSSLSASVGDRVTITCSASQDISNYLNWYQQKPGKAPKLLIYYTSNLHSGVPSRFSGSGSGTDYTLTISSLQPEDFATYYCQQYRKLPWTFGQGTKLEIKR
B3: CA8 humanised J9M2 (antibody, human IgG1, kappa, V domains shown)
VH: B2 VH
VL: B2 VL with M4L, K45E, L47V
B4: CA8 humanised J7M0 (antibody, human IgG1, kappa, V domains shown)
VH: B2 VH with G24A, I48M, A68V, L70I, T74K, T97A
VL: B2 VL with Y71F
B5: CA8 humanised J7M1 (antibody, human IgG1, kappa, V domains shown)
VH: B2 VH with G24A, I48M, A68V, L70I, T74K, T97A
VL: B2 VL
B6: CA8 humanised J5M1 (antibody, human IgG1, kappa, V domains shown)
VH: B2 VH with I48M, A68V, L70I
VL: B2 VL
B7: CA8 humanised J5M2 (antibody, human IgG1, kappa, V domains shown)
VH: B2 VH with I48M, A68V, L70I
VL: B2 VL with M4L, K45E, L47V
B8: CA8 humanised J8M0 (antibody, human IgG1, kappa, V domains shown)
VH: B2 VH with G24A, I48M, A68V, L70I, T74K
VL: B2 VL with Y71F
B9: CA8 humanised J9M0 (antibody, human IgG1, kappa, V domains shown)
VH: B2 VH
VL: B2 VL with Y71F
B10: CA8 humanised J5M0 (antibody, human IgG1, kappa, V domains shown)
VH: B2 VH with I48M, A68V, L70I
VL: B2 VL with Y71F
B11: CA8 humanised J8M1 (antibody, human IgG1, kappa, V domains shown)
VH: B2 VH with G24A, I48M, A68V, L70I, T74K
VL: B2 VL
B12: CA8 humanised J7M2 (antibody, human IgG1, kappa, V domains shown)
VH: B2 VH with G24A, I48M, A68V, L70I, T74K, T97A
VL: B2 VL with M4L, K45E, L47V
B13: CA8 humanised J8M2 (antibody, human IgG1, kappa, V domains shown)
VH: B2 VH with G24A, I48M, A68V, L70I, T74K
VL: B2 VL with M4L, K45E, L47V

The first assay addresses T1, TACI-Fc (UniProt O14836).
T1 sequence (looked up): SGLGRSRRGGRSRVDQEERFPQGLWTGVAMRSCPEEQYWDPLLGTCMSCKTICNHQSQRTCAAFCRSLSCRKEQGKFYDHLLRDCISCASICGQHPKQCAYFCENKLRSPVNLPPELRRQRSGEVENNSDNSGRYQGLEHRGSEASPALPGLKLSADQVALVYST
In words: Biacore, CA8 chimera captured on protein A, TACI-Fc injected, double referenced. (SPR reads the build-up and loss of mass on a sensor chip optically.)
With B1, the binding entry was “no binding (tested: 2.5 µg/ml)”.

Another assay deals with recombinant human BCMA, in house material (human) (UniProt Q02223). The assay can be described thus: ProteOn SPR run 2, antibody captured on Protein A; off-rate beyond the sensitivity of the assay.
Consider B2, for which the binding result was “binds”.
As to B3, the binding entry is listed as “binds”.
Take B4: the binding entry was “binds”.
Regarding B5, the binding result is on record as “binds”.
Take B6: the binding entry is given as “binds”.
Still for that read-out and setting: for B7 the value was “binds”; for B8, “binds”.
As for B9, the binding entry is “binds”.
On the same count and under the same terms, the entry for B10 is “binds”.
In the case of B11, the binding entry is “binds”.
As for B12, the binding result is recorded as “binds”.
Consider B13, for which the binding result was “binds”.

In a further assay the target is recombinant human BCMA, commercial (US Biological, B0410) (human) (UniProt Q02223). In words: Biacore T100, antibody captured on Protein A, 37C.
As for B2, the binding result is “binds”.
On to B4, for which the binding entry is “binds”.
As to B5, the binding result is “binds”.
Consider B8, for which the binding entry is on record as “binds”.
Consider B9, for which the binding result is “binds”.
With B11, the binding result was “binds”.
Regarding B12, the binding result is recorded as “binds”.
As for B13, the binding result was “binds”.

The target in the next assay is T2, BAFF-R-Fc (UniProt Q96RJ3).
T2 sequence (looked up): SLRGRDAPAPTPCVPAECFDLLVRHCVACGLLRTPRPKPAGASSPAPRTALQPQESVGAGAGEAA
In words: Biacore, antibody captured on protein A, BAFF-R-Fc injected.
B1: the binding result is recorded as “no binding”.

Another assay concerns the target T1, TACI-Fc. In words: Biacore, antibody captured on protein A, TACI-Fc injected.
As for B1, the binding result was “no binding”.

The target of another assay is cyno BCMA expressed on HEK293 cells (cyno). In words: FMAT on cyno BCMA transfected HEK293 cells.
As to B1, the binding result was “binds”.

Another assay has the same target. The assay can be described thus: FMAT cell binding on HEK293 cells transfected with cyno BCMA, anti-human IgG FMAT Blue detection.
As to B1, the binding result was “binds”.

In another assay the target is recombinant human BCMA, in house material (human) (UniProt Q02223). In words: ProteOn SPR run 2; off-rate beyond sensitivity; in house or commercial BCMA not told apart.
With B2, the binding result was “binds”.
For the molecule B3, the binding result is given as “binds”.
Consider B4, for which the binding result is reported as “binds”.
On the same count and under the same terms, for B5 the value was “binds”.
With B6, the binding result is “binds”.
B7: the binding entry is reported as “binds”.
As for B8, the binding entry is listed as “binds”.
With B9, the binding result is “binds”.
For the molecule B10, the binding result is given as “binds”.
As for B11, the binding result is listed as “binds”.
Still for that read-out and setting: for B12 the value was “binds”.
As to B13, the binding result is “binds”.

Another assay has as its target BCMA-Fc (Biacore of section 4.3) (Homo sapiens (Human)) (UniProt Q02223). In words: Biacore, antibody captured on protein A, BCMA-Fc injected.
On to B1, for which the binding result is “binds”.

In another assay the target is Human BCMA-Fc (ELISA of section 4.2) (human) (UniProt Q02223). The assay can be described thus: ELISA on coated human BCMA-Fc, anti-human IgG HRP, TMB. For orientation: An ELISA detects its analyte on a solid surface through an enzyme-linked reagent.
Regarding B1, the binding result was “binds”.

A further assay has as its target BCMA-Fc (Biacore of section 4.3) (Homo sapiens (Human)) (UniProt Q02223). The assay can be described thus: Biacore, CA8 chimera captured on protein A, BCMA-Fc injected at 2.5 µg/ml, double referenced.
For the molecule B1, the binding result is listed as “binds”.

The target in another assay is T2, BAFF-R-Fc. The assay can be described thus: Biacore, CA8 chimera captured on protein A, BAFF-R-Fc injected, double referenced.
As to B1, the binding entry is on record as “no binding (tested: 2.5 µg/ml)”.

The target in another assay is Human BCMA-Fc (ELISA of section 4.2) (human) (UniProt Q02223). In words: ELISA on coated human BCMA-Fc.
Regarding B1, the binding entry was “binds”.
